Laboratory results from publication PMC7610265.
These are yes or no findings as the source states them, for the method shown. In cells and extracts the contact can be indirect. Some binding calls cover weakened binding; strength is not graded here. For part of these data: Sequences can lack the tags named with a protein. Blank lines part the entries; values can stand above or below the molecule they belong to.

Amino acid sequences for entries named in this document (tags omitted). A change or cut given only in a name is not applied to a line headed by its entry.
UniProt Q14145: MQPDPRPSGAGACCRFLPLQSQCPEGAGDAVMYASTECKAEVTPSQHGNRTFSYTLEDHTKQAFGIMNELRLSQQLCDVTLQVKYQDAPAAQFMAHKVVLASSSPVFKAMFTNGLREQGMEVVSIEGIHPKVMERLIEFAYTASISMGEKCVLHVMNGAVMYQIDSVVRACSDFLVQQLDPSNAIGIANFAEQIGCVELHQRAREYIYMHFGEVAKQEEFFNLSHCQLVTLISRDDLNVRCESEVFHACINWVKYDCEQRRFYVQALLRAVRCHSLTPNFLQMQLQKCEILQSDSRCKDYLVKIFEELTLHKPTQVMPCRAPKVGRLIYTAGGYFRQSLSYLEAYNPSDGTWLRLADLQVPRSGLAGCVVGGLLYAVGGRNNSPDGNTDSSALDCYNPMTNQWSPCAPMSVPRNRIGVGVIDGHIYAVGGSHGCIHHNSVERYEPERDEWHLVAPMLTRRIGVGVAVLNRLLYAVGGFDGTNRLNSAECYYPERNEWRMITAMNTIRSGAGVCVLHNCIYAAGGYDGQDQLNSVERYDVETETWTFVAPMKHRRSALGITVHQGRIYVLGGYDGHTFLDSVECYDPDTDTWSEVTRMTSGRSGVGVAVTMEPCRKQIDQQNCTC
UniProt P48436: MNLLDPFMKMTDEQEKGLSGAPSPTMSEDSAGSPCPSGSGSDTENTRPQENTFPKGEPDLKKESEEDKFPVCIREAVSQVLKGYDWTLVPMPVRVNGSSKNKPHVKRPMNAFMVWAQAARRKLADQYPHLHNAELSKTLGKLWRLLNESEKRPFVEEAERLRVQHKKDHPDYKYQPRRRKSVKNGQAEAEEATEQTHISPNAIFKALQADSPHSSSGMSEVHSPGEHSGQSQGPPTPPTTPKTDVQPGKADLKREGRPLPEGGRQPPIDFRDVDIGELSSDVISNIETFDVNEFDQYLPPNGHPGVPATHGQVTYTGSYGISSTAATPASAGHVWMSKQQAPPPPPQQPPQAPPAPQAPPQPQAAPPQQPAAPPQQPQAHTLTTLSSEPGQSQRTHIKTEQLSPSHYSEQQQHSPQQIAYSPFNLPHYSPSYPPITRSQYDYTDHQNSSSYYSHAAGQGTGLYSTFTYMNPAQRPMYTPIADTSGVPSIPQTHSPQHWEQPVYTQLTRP

How the values were obtained:
[1] = molecular target: HA-tagged full-length KEAP1 (HA-KEAP1), wild type (human) (UniProt Q14145); experiment: co-IP; HA-KEAP1 full length or truncation mutants coexpressed with Flag-SOX9 in 293T cells; precipitated with HA antibody, Flag-SOX9 detected with Flag antibody; 20 uM MG132 for 6 h
[2] = molecular target: KEAP1 (tag not told for these experiments) (human) (UniProt Q14145); experiment: co-IP; HEK293T cells expressing Flag-tagged WT SOX9, truncated SOX9 mutants or SOX9 degron deletion mutants
[3] = molecular target: SOX9 (HEK293T cells; tag not told for these experiments) (UniProt P48436); experiment: co-IP; SOX9 immunoprecipitates from HEK293T cells expressing HA-tagged CUL3 adaptor constructs, immunoblotted; 20 uM MG132 for 6 h before harvesting
[4] = molecular target: HA-tagged full-length KEAP1 (HA-KEAP1), wild type (human) (UniProt Q14145); experiment: co-IP; HEK293T cells; with or without γ protein phosphatase treatment for 1 h at 37 °C prior to HA-KEAP1 IP and His-SOX9 immunoblot
[5] = molecular target: KEAP1 (tag not told for these experiments) (human) (UniProt Q14145); experiment: co-IP; HEK293T cells with or without ectopic CKIγ1 expression
[6] = molecular target: Flag-KEAP1 W497L (lung carcinoma-associated mutant) (human) (UniProt Q14145); experiment: co-IP; HEK293T cells expressing Flag-tagged WT KEAP1 or lung carcinoma-associated KEAP1 mutants
[7] = molecular target: Flag-KEAP1 G603W (lung carcinoma-associated mutant) (human) (UniProt Q14145); experiment: as above
[8] = molecular target: Flag-KEAP1 E611D (lung carcinoma-associated mutant) (human) (UniProt Q14145); experiment: as above
[9] = molecular target: Flag-tagged wild-type KEAP1 (Flag-KEAP1) (human) (UniProt Q14145); experiment: as above
[10] = molecular target: Flag-KEAP1 R204P (lung carcinoma-associated mutant) (human) (UniProt Q14145); experiment: as above
[11] = molecular target: KEAP1 (tag not told for these experiments) (human) (UniProt Q14145); experiment: co-IP; exogenous KEAP1, with or without etoposide treatment (Figure S6D; cells and tags not shown)
[12] = molecular target: HA-KEAP1 R470C (cancer-associated "superbinder" mutant) (human) (UniProt Q14145); experiment: co-IP; HEK293T cells expressing HA-tagged WT KEAP1 or cancer-associated KEAP1 mutants; 20 uM MG132 for 6 h before harvesting
[13] = molecular target: endogenous KEAP1 (human (endogenous in Huh7, H1299)) (UniProt Q14145); experiment: co-IP; endogenous proteins in Huh7 and A549 (KEAP1 mutant) cell lysates; 20 uM MG132 for 6 h before harvesting
[14] = molecular target: endogenous KEAP1 (human (endogenous in Huh7, H1299)) (UniProt Q14145); experiment: co-IP; H1299 cells with or without etoposide (20 uM) treatment

binding [13]: binds
binding [14]: binds
Molecule: endogenous SOX9 (from UniProt P48436 1-509)

binding [3]: binds
B1: HA-tagged KLHL3 (protein, UniProt Q9UH77 1-587)
chain: MEGESVKLSSQTLIQAGDDEKNQRTITVNPAHMGKAFKVMNELRSKQLLCDVMIVAEDVEIEAHRVVLAACSPYFCAMFTGDMSESKAKKIEIKDVDGQTLSKLIDYIYTAEIEVTEENVQVLLPAASLLQLMDVRQNCCDFLQSQLHPTNCLGIRAFADVHTCTDLLQQANAYAEQHFPEVMLGEEFLSLSLDQVCSLISSDKLTVSSEEKVFEAVISWINYEKETRLEHMAKLMEHVRLPLLPRDYLVQTVEEEALIKNNNTCKDFLIEAMKYHLLPLDQRLLIKNPRTKPRTPVSLPKVMIVVGGQAPKAIRSVECYDFEEDRWDQIAELPSRRCRAGVVFMAGHVYAVGGFNGSLRVRTVDVYDGVKDQWTSIASMQERRSTLGAAVLNDLLYAVGGFDGSTGLASVEAYSYKTNEWFFVAPMNTRRSSVGVGVVEGKLYAVGGYDGASRQCLSTVEQYNPATNEWIYVADMSTRRSGAGVGVLSGQLYATGGHDGPLVRKSVEVYDPGTNTWKQVADMNMCRRNAGVCAVNGLLYVVGGDDGSCNLASVEYYNPVTDKWTLLPTNMSTGRSYAGVAVIHKSL

More lines, now with the values behind:

Molecule: Flag-tagged SOX9 (Flag-SOX9), wild type (from UniProt P48436 1-509)
binding [1]: binds
binding [2]: binds

Molecule: HA-tagged full-length KEAP1 (HA-KEAP1), wild type (from UniProt Q14145 1-624)
binding [3]: binds

Molecule: His-SOX9 (from UniProt P48436 1-509)
binding [4]: binds

Molecule: SOX9 (HEK293T cells; tag not told for these experiments) (from UniProt P48436 1-509)
binding [5]: binds
binding [6]: binds weakly
binding [7]: binds weakly
binding [8]: binds weakly
binding [9]: binds
binding [10]: binds weakly
binding [11]: binds
binding [12]: binds
